Test results taken from article PMC12193022.
Like-named read-outs stand apart in the source and are kept apart here. No constants are given. Whether binding was seen depends on the method and setting. In cells and extracts the contact can be indirect. These calls come from enrichment with a bait or labelling near it, and not all partners need be listed.

Sequences of proteins named here, by UniProt entry; tags and fusion partners are left off. A change or cut given only in a name is not applied to a line headed by its entry.
UniProt Q8IAU1: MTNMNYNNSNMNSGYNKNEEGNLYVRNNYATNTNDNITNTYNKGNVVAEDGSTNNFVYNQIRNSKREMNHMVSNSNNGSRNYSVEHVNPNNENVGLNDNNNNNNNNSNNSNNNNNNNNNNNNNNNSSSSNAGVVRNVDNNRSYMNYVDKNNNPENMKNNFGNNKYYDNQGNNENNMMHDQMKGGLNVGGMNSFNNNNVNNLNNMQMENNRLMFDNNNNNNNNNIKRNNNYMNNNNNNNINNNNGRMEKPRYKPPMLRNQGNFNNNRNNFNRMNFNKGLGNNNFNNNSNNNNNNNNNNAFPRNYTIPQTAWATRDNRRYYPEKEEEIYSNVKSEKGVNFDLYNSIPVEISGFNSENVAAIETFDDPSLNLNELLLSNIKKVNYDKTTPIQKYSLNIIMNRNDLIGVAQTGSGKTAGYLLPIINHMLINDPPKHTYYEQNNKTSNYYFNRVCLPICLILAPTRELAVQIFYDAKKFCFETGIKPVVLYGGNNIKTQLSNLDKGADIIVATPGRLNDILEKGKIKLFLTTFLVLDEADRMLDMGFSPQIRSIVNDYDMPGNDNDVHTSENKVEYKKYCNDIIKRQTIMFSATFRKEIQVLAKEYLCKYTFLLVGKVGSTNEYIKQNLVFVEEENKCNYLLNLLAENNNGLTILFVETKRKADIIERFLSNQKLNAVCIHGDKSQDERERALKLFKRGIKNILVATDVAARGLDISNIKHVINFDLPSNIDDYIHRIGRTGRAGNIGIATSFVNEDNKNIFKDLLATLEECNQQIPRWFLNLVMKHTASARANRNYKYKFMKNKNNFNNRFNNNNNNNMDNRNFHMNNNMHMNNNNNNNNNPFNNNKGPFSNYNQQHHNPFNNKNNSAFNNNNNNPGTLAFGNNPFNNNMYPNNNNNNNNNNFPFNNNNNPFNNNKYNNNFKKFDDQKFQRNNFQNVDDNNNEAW
UniProt Q8II48: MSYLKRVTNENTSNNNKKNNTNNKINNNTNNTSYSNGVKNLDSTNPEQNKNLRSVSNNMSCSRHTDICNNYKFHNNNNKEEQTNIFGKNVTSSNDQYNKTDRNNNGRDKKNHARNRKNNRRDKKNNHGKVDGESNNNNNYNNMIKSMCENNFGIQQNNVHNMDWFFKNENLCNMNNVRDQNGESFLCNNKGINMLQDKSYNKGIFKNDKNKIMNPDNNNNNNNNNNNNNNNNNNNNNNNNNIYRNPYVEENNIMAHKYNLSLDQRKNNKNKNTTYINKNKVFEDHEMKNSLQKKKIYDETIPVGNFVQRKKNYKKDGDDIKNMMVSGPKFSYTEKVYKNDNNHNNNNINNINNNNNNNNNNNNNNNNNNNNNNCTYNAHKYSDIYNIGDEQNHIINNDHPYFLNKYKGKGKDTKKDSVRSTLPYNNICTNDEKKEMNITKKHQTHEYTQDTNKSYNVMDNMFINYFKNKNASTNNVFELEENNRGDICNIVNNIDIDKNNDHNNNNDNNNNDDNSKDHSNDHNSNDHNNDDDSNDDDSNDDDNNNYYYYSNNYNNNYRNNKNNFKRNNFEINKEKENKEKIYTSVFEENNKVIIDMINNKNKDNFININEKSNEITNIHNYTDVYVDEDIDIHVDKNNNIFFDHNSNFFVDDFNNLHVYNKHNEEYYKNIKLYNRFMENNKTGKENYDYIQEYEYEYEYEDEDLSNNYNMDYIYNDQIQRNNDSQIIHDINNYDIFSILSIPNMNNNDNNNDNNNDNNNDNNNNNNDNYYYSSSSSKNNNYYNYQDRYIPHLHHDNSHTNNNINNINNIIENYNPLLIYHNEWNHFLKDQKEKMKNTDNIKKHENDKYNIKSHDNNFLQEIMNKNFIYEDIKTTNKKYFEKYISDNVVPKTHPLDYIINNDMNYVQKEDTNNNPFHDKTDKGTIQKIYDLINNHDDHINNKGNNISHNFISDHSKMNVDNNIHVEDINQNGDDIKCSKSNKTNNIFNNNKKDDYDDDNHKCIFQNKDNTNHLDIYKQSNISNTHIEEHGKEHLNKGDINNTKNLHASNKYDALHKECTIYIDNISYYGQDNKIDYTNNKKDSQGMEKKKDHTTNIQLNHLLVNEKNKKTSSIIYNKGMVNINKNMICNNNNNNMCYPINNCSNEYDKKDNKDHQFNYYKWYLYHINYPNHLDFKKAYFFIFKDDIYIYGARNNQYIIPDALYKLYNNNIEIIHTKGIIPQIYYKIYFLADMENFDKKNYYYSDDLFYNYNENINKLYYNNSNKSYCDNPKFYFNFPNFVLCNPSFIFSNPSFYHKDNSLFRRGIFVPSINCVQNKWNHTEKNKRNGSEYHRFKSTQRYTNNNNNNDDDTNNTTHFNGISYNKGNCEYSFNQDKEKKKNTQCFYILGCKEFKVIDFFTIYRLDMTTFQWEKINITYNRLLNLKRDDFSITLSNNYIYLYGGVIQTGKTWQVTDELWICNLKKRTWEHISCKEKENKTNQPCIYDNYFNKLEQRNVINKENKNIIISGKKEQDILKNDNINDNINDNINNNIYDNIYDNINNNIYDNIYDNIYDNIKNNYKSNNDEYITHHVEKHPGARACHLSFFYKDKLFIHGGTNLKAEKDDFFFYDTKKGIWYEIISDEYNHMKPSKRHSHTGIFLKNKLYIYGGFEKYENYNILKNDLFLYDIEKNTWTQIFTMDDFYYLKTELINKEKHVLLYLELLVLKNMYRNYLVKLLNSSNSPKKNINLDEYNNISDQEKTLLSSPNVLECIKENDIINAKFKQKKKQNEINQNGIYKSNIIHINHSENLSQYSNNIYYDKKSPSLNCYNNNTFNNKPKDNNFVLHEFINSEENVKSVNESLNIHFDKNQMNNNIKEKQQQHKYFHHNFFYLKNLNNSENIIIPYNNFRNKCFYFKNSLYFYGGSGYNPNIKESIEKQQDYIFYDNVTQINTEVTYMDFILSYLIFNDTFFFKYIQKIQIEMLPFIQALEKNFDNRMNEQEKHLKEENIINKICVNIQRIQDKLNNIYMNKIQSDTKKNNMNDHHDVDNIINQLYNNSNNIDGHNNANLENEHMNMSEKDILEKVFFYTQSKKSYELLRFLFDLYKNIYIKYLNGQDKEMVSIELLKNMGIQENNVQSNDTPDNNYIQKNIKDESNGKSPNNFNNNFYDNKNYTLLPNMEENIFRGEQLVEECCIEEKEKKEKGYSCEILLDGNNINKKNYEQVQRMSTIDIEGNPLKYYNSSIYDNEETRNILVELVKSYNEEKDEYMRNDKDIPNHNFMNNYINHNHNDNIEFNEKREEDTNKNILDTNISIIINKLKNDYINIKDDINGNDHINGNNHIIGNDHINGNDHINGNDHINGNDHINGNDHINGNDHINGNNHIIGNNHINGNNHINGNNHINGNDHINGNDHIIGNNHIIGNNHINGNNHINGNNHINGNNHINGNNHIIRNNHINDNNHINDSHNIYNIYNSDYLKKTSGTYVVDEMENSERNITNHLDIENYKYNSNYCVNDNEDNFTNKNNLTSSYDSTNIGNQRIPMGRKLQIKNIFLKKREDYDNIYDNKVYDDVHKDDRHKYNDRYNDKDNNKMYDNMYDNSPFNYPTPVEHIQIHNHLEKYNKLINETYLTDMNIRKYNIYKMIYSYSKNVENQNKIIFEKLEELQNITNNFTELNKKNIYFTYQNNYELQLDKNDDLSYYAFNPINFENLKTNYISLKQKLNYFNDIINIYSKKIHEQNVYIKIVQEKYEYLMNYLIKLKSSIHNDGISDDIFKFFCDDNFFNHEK
UniProt Q8I515: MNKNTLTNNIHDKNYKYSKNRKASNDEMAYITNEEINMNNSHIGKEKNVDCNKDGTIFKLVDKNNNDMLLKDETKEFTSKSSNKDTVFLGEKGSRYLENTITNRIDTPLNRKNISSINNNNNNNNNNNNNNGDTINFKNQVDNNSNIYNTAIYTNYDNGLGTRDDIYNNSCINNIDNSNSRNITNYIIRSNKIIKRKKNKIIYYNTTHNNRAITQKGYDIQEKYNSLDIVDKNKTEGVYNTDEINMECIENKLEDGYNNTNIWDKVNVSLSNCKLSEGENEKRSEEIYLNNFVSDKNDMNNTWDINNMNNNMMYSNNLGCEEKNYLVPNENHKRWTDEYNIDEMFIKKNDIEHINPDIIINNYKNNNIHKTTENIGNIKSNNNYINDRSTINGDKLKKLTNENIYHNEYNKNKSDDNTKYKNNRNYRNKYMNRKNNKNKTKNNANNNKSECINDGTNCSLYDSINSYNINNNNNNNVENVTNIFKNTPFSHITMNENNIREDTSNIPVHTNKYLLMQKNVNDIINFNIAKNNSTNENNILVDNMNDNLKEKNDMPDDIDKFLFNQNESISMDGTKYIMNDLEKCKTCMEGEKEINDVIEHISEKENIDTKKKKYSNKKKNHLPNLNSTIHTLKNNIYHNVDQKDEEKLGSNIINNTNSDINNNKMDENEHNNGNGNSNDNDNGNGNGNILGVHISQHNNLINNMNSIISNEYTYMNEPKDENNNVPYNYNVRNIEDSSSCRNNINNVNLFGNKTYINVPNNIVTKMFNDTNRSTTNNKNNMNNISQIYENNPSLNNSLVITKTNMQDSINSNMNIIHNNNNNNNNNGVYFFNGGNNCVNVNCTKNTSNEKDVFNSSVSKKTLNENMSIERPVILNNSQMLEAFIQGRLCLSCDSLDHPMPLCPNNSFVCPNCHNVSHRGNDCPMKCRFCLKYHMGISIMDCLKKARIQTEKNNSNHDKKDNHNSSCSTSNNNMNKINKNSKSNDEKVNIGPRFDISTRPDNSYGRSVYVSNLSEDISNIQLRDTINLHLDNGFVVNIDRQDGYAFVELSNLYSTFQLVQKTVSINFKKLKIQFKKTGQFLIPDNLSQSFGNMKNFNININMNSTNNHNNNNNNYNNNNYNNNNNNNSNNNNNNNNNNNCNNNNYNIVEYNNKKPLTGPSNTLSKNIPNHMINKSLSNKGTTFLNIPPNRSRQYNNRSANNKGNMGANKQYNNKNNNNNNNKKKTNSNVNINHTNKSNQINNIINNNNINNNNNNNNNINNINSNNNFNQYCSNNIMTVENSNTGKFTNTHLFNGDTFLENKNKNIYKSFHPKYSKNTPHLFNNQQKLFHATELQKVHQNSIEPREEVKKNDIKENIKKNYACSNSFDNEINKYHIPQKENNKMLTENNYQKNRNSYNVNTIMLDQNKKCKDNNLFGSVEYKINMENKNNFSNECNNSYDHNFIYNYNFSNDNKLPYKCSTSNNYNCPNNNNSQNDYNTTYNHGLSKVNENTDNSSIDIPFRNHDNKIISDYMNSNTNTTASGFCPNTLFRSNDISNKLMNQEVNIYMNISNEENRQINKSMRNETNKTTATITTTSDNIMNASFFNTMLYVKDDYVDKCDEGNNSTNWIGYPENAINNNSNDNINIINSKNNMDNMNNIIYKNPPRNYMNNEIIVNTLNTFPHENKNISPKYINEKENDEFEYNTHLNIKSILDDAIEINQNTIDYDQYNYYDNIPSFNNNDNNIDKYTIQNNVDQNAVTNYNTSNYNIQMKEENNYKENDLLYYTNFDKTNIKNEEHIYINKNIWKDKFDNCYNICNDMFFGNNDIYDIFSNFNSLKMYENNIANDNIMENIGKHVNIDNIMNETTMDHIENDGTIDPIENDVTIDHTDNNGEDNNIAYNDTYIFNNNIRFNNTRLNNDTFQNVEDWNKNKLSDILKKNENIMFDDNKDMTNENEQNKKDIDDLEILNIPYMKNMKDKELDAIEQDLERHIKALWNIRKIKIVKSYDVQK
UniProt O97271: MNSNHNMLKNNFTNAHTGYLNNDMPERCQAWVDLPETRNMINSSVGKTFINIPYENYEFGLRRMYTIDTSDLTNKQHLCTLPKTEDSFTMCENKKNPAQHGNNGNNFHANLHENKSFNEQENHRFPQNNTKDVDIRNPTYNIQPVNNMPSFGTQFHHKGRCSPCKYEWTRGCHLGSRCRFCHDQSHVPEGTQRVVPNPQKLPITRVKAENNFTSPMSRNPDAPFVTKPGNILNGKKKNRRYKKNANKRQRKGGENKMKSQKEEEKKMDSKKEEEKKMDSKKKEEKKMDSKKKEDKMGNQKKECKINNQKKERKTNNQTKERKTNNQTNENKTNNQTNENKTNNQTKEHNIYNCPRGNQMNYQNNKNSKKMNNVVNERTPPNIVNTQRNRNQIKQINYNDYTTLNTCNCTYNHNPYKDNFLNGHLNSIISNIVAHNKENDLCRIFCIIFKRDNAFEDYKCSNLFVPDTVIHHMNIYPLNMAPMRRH
UniProt Q8I5P2: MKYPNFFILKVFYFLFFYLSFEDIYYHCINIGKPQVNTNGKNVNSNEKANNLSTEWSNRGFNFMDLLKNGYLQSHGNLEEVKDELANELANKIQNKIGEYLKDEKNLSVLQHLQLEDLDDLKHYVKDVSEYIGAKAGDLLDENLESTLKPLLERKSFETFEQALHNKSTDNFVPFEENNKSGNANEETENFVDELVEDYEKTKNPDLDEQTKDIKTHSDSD

B1: female gametocyte protein PfFGP1 (protein, UniProt Q8IB92 1-637)
chain: MLNIFSNEDLSLPAEKEEEEEEKLEKSKDKKDLDKIESKKIDRKFSHGSYLSKYDSKRLYYNKRLETKIKSLRKSFRKRYRIVRNNLMKLIKVLKEFPDIKQIKEHETTDGKITINIDVVQKLNKIMDKINIEKLKYNNKKEKRKKKKGIKNKSRNINSNSNTNRNRSRYKSEEYLYPKKKLSKISFSSTLFPLSKRIRYKSNINSLSMENKKNKRKRKKKKKKKKKENNIQNEKLHKRKNIYSKRGNIFSKSKTFGKLHRRRIYKNPYEHRKTFYENIYENLNENLNQHIYENMYENLNQNIYENMYENLNTNMFEITNDNNPQKKYNNTYNNMFENLYGNVYPNELELSYERELDNVYKSLNVNGSHNLNNNSHKYKFQKTFYHNALQNYYPNTSLPFNKNYLKNNNFYYYYMNLKNKKHQNVNHYNDTNNVLVTDFYMYSTLNASFNRLNSLKNKNNFHLFNRNIPNVYLKRANDIIGFNNNNNNNNNNNNNNNNNNNNNNNNNNNSNNNNKIESTYMEHDFLKNLPYTMNNNSNNNMLLKYYPEQHTYVHNITESFFSPNKIFTIRKGKKNKTTNQNKHKLKKFVKDEKIRNLLRTATNEDELLRAINFAKNAGLEFEAKLGDKKLNKLKCTS

Columns and labels:
[1] = target: PfRNF1-GFP-BirA fusion protein (P. falciparum) (UniProt O97260); experiment: proximity labelling; BioID-MS: Percoll-enriched immature gametocytes of line PfRNF1-pffnpa-GFP-BirA (control WT NF54) treated with 50 µM biotin for 24 h; streptavidin-purified proteins, LC-MS with label-free quantification; at least two-fold enrichment over controls in three biological replicates, FDR 0.01
[2] = target: PfRNF1-GFP-BirA fusion protein (P. falciparum) (UniProt O97260); experiment: as above; remark: listed apart in the source

Molecule	binding [1]	binding [2]
ATP-dependent RNA helicase DBP1 (from UniProt Q8IAU1) (enzyme)	binds	–
C3H1-ZFP PF3D7_0522900 (from UniProt Q8I3N4 1-1552)	binds	–
CAF1 (from UniProt C0H4T9)	binds	–
CCR4-NOT component PfNOT2 (from UniProt Q8II77)	binds	–
Kelch domain-containing protein PF3D7_1131600 (from UniProt Q8II48 1-2763)	binds	–
NOT1 (from UniProt Q8IIW4)	binds	–
NOT1-G (from UniProt Q8ILS4)	binds	–
PABP1 (from UniProt Q8I5H4)	binds	–
PfFD1 (from UniProt Q8I515)	binds	–
PfFD2 (from UniProt Q8IHQ0)	binds	–
PfFD4 (from UniProt Q8I5L2)	binds	–
PfGD1 (from UniProt C0H566)	binds	–
PfMD3 (male development protein 3) (from UniProt O97271)	binds	–
PfMDV1 (male development gene 1) (from UniProt Q8I5P2)	binds	–
PfPUF1 (from UniProt Q8I3S3)	binds	–
PfZNF4 (zinc finger protein 4) (from UniProt Q8II18)	binds	–
nuclear export mediator factor PfNEMF (from UniProt A0A144A0J9)	binds	–
protein of developing gametocytes PfPDG1 (from UniProt Q8ILS9 1-3026)	binds	–
ubiquitin-like protein PF3D7_0922100 (from UniProt Q8I2T2 1-1542)	binds	–
ubiquitin-specific protease PF3D7_0904600 (from UniProt Q8I3A3 1-1770) (enzyme)	binds	–
B1	–	binds
